From US20200384014A1, “Pulsed Administration Of Inhaled Nitric Oxide For The Treatment Of Pulmonary Hypertension” (Bellerophon Pulse Technologies LLC, priority 2017, published 2020)

Tested on: systolic pulmonary arterial pressure (sPAP) in subjects with PH-COPD
Assay: Phase 2 placebo-controlled clinical study of pulsed iNO in subjects with PH-COPD on LTOT (IK-7002-COPD-201; NCT01728220)
Assay type: in vivo, human
From the text: This study was a Phase 2, placebo-controlled, double-blind, randomized, two-part, dose-confirming clinical study characterizing the pharmacodynamic effects of pulsed iNO versus placebo in subjects with PH-COPD on LTOT (IK-7002-COPD-201; NCT01728220). The primary outcome of this study was change in systolic pulmonary arterial pressure (sPAP) from baseline after treatment with iNO (measured by 2D transthoracic echocardiography with Doppler). The secondary outcome was the occurrence of a decrease ≥5 mm Hg of partial pressure of oxygen in arterial blood (PaO2) from baseline after treatment with iNO.
Subjects also had tricuspid regurgitation velocity (TRV)≥2.9 m/s as measured by echocardiogram, a post-bronchodilatory forced expiratory volume in 1 second/forced vital capacity (FEV1/FVC)<0.7 and a FEV1<60% predicted. All subjects were at least 40 years old and were former smokers with at least 10 pack-years of tobacco cigarette smoking before study entry. All subjects also had been receiving LTOT for at least 3 months for at least 10 hours per day.
PH-COPD subjects were administered pulsed iNO at a dose of 3, 10, 15, 30 or 75 mcg/IBW kg/hr for at least 20 minutes, or received pulsed placebo (99.999% N2) for at least 20 minutes. The doses of 3 and 10 mcg/kg IBW/hr were administered from a mini-cylinder having 2,440 ppm NO and the doses of 15, 30 and 75 mcg/kg IBW/hr were administered from a mini-cylinder having 4,880 ppm NO.
The NO delivery device delivered gas comprising NO in a pulsatile manner at the beginning of the patient's breath. The minimum pulse volume is limited and for lower doses, can require 1 or more breaths to be skipped to maintain a constant dose in mcg/kg IBW/hr.

SMILES: [N]=O [iNO, nitric oxide]
- Average Respiration Rate during Treatment (pulsed iNO 10 mcg/kg IBW/hr): 17.9 bpm
- Average Respiration Rate during Treatment (pulsed iNO 15 mcg/kg IBW/hr): 19.2 bpm
- Average Respiration Rate during Treatment (pulsed iNO 30 mcg/kg IBW/hr): 17.3 bpm
- Average Respiration Rate during Treatment (pulsed iNO 75 mcg/kg IBW/hr): 17.8 bpm
